Results reported in US20250340607A1 (UNIVERSITY OF CHICAGO, published 2025).
Results are given in words; binding and its absence hold for the method and conditions named. Some entries that bind do so weakly or less than the wild type. Tags and fused reporters may be left off the sequences shown.

Target: T1, murine Flt3 (R&D 768-F3-050) (murine, UniProt Q00342 28-544)
T1 construct: Bought recombinant protein coated on the ELISA plate; also called receptor for Flt3L; recombinant CD135
T1 sequence (looked up): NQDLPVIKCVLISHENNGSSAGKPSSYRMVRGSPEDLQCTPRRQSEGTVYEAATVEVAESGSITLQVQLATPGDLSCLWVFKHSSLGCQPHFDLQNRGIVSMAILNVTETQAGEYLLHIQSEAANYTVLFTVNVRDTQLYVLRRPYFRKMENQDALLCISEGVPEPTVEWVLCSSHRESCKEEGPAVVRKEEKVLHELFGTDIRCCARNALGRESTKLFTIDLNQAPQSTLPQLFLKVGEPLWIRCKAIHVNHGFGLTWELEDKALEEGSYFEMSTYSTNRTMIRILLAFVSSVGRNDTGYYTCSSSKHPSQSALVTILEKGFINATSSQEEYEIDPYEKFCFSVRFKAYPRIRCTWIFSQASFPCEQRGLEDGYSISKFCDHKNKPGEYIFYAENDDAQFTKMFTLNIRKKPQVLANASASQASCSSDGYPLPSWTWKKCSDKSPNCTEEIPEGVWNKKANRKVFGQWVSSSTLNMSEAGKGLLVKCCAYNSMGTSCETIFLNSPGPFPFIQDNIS
Assay: CD135 binding ELISA: plate coated with 10 nM recombinant CD135

B1: Flt3L fused to Mouse Serum Albumin (Flt3L-MSA) (other)
chain: MTPDCYFSHSPISSNFKVKFRELTDHLLKDYPVTVAVNLQDEKHCKALWSLFLAQRWIEQLKTVAGSKMQTLLEDVNTEIHFVTSCTFQPLPECLRFVQTNISHLLKDTCTQLLALKPCIGKACQNFSRCLEVQCQPDSSTLLPPRSPIALEATELPEPRPRQGGGGSGGGGSEAHKSEIAHRYNDLGEQHFKGLVLIAFSQYLQKCSYDEHAKLVQEVTDFAKTCVADESAANCDKSLHTLFGDKLCAIPNLRENYGELADCCTKQEPERNECFLQHKDDNPSLPPFERPEAEAMCTSFKENPTTFMGHYLHEVARRHPYFYAPELLYYAEQYNEILTQCCAEADKESCLTPKLDGVKEKALVSSVRQRMKCSSMQKFGERAFKAWAVARLSQTFPNADFAEITKLATDLTKVNKECCHGDLLECADDRAELAKYMCENQATISSKLQTCCDKPLLKKAHCLSEVEHDTMPADLPAIAADFVEDQEVCKNYAEAKDVFLGTFLYEYSRRHPDYSVSLLLRLAKKYEATLEKCCAEANPPACYGTVLAEFQPLVEEPKNLVKTNCDLYEKLGEYGFQNAILVRYTQKAPQVSTPTLVEAARNLGRVGTKCCTLPEDQRLPCVEDYLSAILNRVCLLHEKTPVSEHVTKCCSGSLVERRPCFSALTVDETYVPKEFKAETFTFHSDICTLPEKEKQIKKQTALAELVKHKPKATAEQLKTVMDDFAQFLDTCCKAADKDTCFSTEGPNLVTRCKDALAHHHHHH
notes: also called MSA fused Flt3L; Flt3L-SA
binding: binds
